Values are the deposited “Percent Effect”, in %. The record does not define 0% and 100%; most values in the screen are far below 50% and negative numbers occur (in some assays of this library far below -100). This is an unselected part of the compounds tested.

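Whole-cell assay for inhibitors of Mycobacterium tuberculosis growth, labelled Cornell in the record; the read-out is not stated. The concentration is filed as 10 mM, unlikely as a test dose, so the dose is not known. Higher means stronger inhibition (inferred from two other growth screens of the library). Size under these conditions: about 53,000 compounds, about 900 of them at 50% or above in at least one test.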

- Cc1ccc(NCc2cn3c(n2)CN(Cc2ccoc2)CC3)nn1.O=C(O)C(F)(F)F.O=C(O)C(F)(F)F | -15.73%
- O=C(O)C(F)(F)F.[H][C@@]12CCN(c3cccnc3)C[C@]1([H])CN(C(=O)c1ccc(C)nc1)C2 | 2.085%
- c1ccc(-n2nnnc2CNCC2CCCN2c2cccnn2)cc1 (stereo not shown) | -25.95%
- CC1Oc2c(cccc2C(=O)N2CCN(CC(C)(C)O)CC2)NC1=O (stereo not shown) | 36.72%
- COc1ccc(S(=O)(=O)N2CCn3cnc(COCC4CC4)c3C2)cc1 | -38.6%
- COc1nccnc1-c1cc(NC2CCNCC2)nc2[nH]ccc12 | 48.16%
- CCc1c(C)n(CC(C)=O)c2nc3ccccc3n2c1=O | 26.74%
- [H][C@]12CCC(=O)N(c3cccnc3)[C@@]1([H])CCN2C(=O)c1cccs1 | 12.2%
- Cc1cnc(NC(=O)N2CCCC2)s1 | 13.69%
- O=C(O)C(F)(F)F.[H][C@]12C[C@@H](C(=O)N(C)C)CO[C@@]1([H])CCN(c1ncc(F)cn1)C2 | 21.71%
- I.c1cc2c(cc1C1(CNC3=NCCN3)CCCC1)OCCO2 | 25.05%
- Cc1cccc(-c2ccc(C(=O)NCCN(C)C3CC3)c(=O)[nH]2)c1 | 10.36%
- CC(C)CCS(=O)(=O)N1CCCC(c2nncn2C(C)C)C1 (stereo not shown) | 0.443%
- CCc1nc(C2CCCN2C(=O)c2ccoc2C)no1 (stereo not shown) | 0.6103%
- CN1CCc2c(C#N)c(NCCCN3CCOCC3)n3cnnc3c2C1.Cl.Cl | -0.4631%
- COc1ccc2nnc(CCCC(=O)NCc3ccccc3OC)n2n1 | 6.875%
- N#Cc1ccc(N2CCC(c3nccn3Cc3cscn3)CC2)nc1 | -2.26%
- Cc1cc(C)n(CC2CN(Cc3cccc(C(N)=O)c3)CCO2)n1 (stereo not shown) | 11.35%
- CN(CCNC(=O)c1cnc(-c2ccccc2)nc1)S(C)(=O)=O | -18.18%
- O=C(N1CCCC1)N1CCC(c2nccn2Cc2cscn2)CC1 | 4.884%
- O=C1NCC2(CCCN(C(=O)c3ccc4c(c3)OCCO4)CC2)O1 (stereo not shown) | -5.929%
- COc1cccc2c3c(c(=O)[nH]c12)CC(C)(C)O3 | 15.15%
- CCc1c(C)noc1-c1cnc(NC2CC2)nc1-c1cnc(C)cn1 | 6.425%
- COCC1c2nnn(CC3CC3)c2CCN1C(=O)CS(C)(=O)=O (stereo not shown) | 12.13%
- Cc1nccn1CCC1CCN(C(C)C)CC1 | 6.84%
- COCC1CN(C(=O)CNC(C)=O)Cc2ncnn2C1 (stereo not shown) | -51.44%
- CNC(=O)c1c(C)cccc1NCc1noc(C2CC2)n1 | 40.52%
- COc1cc(C2C3=C(COC3=O)Nc3[nH]nc(C)c32)cc2c1OCO2 (stereo not shown) | -12.41%
- CC(C)(C)c1noc(-c2ccnc(-n3cnc(C(=O)O)c3)c2)n1 | -9.031%
- Cc1nsc(C(=O)NCCc2ccc(Cl)cc2)n1 | 33.91%
- CNC(=O)Cc1ccccc1NC(=O)C1CCN(C2CCCCC2)C1 (stereo not shown) | -3.835%
- CCCn1nnnc1COc1cc(OC)ccc1C(N)=O | -4.013%
- Cc1cnn(CCCn2ncc(N3CCC(CN)C3)cc2=O)c1 (stereo not shown) | -18.29%
- Cc1nc(CN)cc(N2CCC(O)(c3ccc(Cl)cc3)CC2)n1 | 9.857%
- [H][C@]12CC[C@@]3(N=C(C)N(CC(C)C)C3=O)[C@@]1([H])CN(S(=O)(=O)CC)C2 | -6.043%
- CC(C)c1noc(C(C)N2CCN(Cc3ccsc3)CC2)n1 (stereo not shown) | 13.15%
- Cc1cc(C[C@@H]2CCC[C@H]2NCc2cc(C)c(O)c(C)c2)on1.O=C(O)CC(O)(CC(=O)O)C(=O)O | 77.55%
- CN(C)c1nccc(C2CCN(C(=O)CO)CC2)n1 | -13.67%
- Cc1nc(C2CCCN2CC(=O)Nc2cc(C(C)(C)C)nn2C)no1 (stereo not shown) | -17.86%
- Cc1noc(C)c1CN1CCCC1C(=O)OCc1ccccc1 (stereo not shown) | 23.17%
- CC(NC1CCN(C(=O)C2CCCCC2)CC1)c1nccs1 (stereo not shown) | 12.44%
- [H][C@]12CC[C@@]3(N=C(CC)N(CC(C)C)C3=O)[C@@]1([H])CN(S(C)(=O)=O)C2 | 9.391%
- Cn1cc(CN2CCCC23CCN(c2nc4ccccc4s2)CC3)cn1 | 13.88%
- O=C(NC[C@H]1OC[C@@H](N(CC2CC2)CC2CC2)[C@@H]1O)Nc1ccccc1 | 28.86%
- COCCN1C(=O)C2(CCC(C(=O)Nc3cccc(C)c3)CC2)N=C1C (stereo not shown) | 23.11%

5 of the entries, repeated:

- COc1ccc(S(=O)(=O)N2CCn3cnc(COCC4CC4)c3C2)cc1 | -38.6%
- Cc1cnn(CCCn2ncc(N3CCC(CN)C3)cc2=O)c1 (stereo not shown) | -18.29%
- COCCN1C(=O)C2(CCC(C(=O)Nc3cccc(C)c3)CC2)N=C1C (stereo not shown) | 23.11%
- CC(C)CCS(=O)(=O)N1CCCC(c2nncn2C(C)C)C1 (stereo not shown) | 0.443%
- Cn1cc(CN2CCCC23CCN(c2nc4ccccc4s2)CC3)cn1 | 13.88%

The values are deposited in ChEMBL (CHEMBL3988442, “University of Dundee, Small-Polar-MMV Screening Library” (2021)).